Experimental findings from the supplement of paper PMC12819154, “High-throughput peptide-centric local stability assay extends protein–ligand identification to membrane proteins, tissues and bacteria” (Nature Structural & Molecular Biology, 2025) are described below.

Chains of the proteins cited; added tags and fusions are not shown. Lines headed by an entry give the natural chain unless they say otherwise; changes in a name come on top.
UniProt P08390: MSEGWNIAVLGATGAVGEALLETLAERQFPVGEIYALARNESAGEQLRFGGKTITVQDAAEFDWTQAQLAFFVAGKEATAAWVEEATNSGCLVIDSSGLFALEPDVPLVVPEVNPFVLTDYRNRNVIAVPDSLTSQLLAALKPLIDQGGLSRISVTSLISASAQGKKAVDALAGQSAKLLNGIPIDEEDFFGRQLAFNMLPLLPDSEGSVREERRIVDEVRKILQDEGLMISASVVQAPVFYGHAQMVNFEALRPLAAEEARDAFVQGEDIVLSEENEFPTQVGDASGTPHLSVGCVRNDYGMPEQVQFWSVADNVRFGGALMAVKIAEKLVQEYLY
UniProt P00634, whole entry: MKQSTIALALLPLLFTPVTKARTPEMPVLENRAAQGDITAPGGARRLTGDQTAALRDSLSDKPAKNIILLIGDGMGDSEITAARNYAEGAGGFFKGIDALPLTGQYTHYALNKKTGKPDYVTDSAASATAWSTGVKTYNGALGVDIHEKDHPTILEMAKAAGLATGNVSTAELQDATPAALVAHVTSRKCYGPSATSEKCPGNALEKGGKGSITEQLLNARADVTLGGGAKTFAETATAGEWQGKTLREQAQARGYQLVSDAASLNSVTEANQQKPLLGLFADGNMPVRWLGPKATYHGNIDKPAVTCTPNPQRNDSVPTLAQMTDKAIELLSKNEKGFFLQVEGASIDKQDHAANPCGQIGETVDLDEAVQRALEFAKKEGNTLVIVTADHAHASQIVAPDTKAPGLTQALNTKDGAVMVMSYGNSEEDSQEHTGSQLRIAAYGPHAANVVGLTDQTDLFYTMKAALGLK
UniProt P08660: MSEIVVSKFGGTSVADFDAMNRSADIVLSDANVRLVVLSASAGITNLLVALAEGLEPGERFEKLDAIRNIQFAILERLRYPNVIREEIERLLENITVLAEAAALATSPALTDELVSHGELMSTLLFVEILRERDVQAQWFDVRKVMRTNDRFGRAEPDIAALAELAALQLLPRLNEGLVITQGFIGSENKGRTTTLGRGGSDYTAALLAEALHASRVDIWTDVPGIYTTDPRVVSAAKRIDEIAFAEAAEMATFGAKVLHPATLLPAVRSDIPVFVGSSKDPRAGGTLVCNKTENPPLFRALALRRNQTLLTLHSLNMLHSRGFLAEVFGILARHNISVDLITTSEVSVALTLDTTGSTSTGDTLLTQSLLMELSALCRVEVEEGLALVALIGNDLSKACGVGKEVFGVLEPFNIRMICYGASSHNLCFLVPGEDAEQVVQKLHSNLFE
UniProt P03817: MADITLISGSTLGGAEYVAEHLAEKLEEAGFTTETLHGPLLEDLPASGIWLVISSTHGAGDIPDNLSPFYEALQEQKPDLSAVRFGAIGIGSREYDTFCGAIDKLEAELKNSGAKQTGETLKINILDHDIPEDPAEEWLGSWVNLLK
UniProt P05706: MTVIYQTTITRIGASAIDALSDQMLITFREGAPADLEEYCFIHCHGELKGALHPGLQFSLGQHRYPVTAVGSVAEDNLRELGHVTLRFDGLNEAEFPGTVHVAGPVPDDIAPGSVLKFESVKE
UniProt P00550: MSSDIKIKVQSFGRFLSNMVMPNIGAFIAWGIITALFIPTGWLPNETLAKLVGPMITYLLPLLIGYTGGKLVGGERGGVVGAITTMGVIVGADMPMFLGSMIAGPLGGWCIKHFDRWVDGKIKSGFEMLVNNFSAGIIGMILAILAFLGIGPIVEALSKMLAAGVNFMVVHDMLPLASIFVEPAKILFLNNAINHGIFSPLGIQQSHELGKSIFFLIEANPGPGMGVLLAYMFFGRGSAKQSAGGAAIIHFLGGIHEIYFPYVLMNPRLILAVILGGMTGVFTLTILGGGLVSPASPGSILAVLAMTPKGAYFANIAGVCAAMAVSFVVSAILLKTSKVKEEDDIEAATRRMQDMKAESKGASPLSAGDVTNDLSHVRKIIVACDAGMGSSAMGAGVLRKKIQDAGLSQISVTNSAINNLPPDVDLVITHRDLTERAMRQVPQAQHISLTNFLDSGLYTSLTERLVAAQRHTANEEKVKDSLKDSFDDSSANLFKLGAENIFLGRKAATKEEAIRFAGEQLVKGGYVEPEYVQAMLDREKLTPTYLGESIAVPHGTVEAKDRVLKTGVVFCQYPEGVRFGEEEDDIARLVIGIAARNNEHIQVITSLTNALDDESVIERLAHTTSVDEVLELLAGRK
UniProt P09162: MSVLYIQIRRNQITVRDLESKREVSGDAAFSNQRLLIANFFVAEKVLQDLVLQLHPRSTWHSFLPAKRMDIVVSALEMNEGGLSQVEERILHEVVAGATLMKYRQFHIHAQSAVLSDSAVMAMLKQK
UniProt P00803: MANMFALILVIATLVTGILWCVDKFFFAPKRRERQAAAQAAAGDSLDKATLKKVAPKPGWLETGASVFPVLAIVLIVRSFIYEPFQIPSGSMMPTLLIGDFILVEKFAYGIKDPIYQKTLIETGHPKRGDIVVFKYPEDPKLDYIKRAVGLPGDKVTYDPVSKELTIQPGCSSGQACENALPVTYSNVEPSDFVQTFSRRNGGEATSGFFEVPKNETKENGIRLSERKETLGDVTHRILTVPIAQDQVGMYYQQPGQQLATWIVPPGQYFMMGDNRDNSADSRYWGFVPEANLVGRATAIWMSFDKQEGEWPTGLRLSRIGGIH
UniProt P02924: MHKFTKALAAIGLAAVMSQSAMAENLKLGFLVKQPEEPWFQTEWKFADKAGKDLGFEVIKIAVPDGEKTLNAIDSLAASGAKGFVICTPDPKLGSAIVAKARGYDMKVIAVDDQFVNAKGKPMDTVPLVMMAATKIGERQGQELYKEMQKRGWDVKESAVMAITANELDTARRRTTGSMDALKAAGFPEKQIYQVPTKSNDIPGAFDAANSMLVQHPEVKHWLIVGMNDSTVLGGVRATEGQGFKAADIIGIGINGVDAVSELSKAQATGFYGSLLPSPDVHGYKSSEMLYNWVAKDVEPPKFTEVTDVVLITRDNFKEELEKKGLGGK
UniProt A5A607: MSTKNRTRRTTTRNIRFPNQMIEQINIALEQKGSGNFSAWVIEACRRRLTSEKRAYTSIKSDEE
UniProt P04816: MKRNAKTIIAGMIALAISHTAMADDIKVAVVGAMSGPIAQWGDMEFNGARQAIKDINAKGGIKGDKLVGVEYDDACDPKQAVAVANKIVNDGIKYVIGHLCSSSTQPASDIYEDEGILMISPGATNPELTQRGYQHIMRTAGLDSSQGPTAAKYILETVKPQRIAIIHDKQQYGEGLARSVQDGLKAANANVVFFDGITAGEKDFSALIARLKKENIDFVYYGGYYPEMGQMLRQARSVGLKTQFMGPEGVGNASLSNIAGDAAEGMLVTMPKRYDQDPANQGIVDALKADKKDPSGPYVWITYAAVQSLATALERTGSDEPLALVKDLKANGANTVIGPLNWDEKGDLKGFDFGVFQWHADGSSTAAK
UniProt P07118: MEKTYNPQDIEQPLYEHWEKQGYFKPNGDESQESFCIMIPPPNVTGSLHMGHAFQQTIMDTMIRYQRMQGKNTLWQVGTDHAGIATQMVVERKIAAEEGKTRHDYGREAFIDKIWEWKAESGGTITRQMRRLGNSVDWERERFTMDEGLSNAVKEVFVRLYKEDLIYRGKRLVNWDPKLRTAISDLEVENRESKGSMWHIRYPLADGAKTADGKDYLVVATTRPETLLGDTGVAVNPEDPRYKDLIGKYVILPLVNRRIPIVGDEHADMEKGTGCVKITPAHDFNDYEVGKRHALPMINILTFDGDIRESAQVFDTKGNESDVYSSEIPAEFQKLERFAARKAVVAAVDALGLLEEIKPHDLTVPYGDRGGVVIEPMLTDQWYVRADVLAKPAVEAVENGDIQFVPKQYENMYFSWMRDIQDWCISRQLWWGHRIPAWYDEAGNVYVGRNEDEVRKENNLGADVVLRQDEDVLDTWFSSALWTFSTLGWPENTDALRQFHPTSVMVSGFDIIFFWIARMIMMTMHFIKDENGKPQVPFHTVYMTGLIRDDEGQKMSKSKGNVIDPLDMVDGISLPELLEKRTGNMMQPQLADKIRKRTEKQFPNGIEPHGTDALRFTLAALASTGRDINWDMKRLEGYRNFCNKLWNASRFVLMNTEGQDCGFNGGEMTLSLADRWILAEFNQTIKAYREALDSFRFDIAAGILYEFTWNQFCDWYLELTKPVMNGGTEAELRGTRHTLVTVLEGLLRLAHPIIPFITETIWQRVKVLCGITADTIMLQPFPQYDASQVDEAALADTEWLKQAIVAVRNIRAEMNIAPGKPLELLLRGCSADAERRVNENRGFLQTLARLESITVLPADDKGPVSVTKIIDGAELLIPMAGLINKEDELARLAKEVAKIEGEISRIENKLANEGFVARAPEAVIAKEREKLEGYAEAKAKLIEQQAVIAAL
UniProt P09980: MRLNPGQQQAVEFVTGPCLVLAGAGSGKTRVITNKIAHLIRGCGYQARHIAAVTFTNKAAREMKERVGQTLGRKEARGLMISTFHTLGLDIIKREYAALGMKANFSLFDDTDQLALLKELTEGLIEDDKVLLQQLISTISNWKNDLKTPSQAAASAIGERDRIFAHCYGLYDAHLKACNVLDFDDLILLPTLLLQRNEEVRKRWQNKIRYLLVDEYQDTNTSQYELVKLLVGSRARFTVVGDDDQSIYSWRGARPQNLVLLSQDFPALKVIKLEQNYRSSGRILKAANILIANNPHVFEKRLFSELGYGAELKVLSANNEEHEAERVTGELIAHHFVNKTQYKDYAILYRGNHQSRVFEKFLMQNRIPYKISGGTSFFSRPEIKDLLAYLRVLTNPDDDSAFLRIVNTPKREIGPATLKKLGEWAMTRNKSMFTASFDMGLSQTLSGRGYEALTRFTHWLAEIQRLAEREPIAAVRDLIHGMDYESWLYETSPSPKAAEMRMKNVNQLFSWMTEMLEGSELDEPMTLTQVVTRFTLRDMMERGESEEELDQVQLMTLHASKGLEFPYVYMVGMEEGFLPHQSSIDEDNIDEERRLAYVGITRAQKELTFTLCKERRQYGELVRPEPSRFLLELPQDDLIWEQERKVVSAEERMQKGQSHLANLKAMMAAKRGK
UniProt P05042: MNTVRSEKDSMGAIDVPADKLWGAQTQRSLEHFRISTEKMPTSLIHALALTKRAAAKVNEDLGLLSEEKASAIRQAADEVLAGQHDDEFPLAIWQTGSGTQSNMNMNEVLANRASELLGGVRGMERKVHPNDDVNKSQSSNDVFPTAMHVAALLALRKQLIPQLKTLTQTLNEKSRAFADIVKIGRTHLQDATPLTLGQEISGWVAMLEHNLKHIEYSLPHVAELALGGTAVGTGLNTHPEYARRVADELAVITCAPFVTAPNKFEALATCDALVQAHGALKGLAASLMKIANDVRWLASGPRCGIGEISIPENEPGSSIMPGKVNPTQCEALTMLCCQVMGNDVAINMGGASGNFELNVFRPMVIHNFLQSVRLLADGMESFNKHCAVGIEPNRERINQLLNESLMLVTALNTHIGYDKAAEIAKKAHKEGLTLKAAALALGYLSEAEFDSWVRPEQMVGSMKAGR
UniProt P00909: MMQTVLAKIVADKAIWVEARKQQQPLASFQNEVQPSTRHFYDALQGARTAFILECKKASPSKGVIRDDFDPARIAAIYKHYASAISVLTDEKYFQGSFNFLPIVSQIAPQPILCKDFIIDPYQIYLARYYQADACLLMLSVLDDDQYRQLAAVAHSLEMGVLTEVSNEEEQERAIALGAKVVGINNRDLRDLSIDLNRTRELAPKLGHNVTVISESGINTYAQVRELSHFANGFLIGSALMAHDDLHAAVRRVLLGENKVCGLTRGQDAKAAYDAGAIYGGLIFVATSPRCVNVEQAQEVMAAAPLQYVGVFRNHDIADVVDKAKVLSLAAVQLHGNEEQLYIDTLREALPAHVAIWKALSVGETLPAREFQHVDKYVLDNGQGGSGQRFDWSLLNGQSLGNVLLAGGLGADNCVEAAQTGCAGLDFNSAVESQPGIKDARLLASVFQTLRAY
UniProt P08190: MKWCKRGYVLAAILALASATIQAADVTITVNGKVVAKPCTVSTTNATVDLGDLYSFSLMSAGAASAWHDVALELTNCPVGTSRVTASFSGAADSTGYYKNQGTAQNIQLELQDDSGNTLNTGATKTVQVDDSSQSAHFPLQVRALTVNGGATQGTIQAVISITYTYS
UniProt P05041: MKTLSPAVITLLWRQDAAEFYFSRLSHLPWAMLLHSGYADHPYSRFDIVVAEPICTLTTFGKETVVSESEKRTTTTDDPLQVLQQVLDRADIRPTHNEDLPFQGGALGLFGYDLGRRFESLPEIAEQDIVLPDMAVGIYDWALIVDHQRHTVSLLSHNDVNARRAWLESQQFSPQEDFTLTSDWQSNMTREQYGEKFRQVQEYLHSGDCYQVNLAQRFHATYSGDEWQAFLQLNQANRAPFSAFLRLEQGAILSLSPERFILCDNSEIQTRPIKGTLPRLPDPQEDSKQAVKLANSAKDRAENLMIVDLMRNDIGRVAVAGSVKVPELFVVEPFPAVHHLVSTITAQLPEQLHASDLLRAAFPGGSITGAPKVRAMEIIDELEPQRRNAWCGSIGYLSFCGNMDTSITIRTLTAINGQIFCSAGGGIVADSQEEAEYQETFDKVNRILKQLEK

The list shows a part of the results. Small differences around the control level are noise.

Compound in the experiment: CC1(C)S[C@@H]2[C@H](NC(=O)[C@H](N)c3ccccc3)C(=O)N2[C@H]1C(=O)O [ampicillin]
Nature of the experiment: log2 fold change of tryptic peptide abundance, ligand vs vehicle (limited proteolysis) (log2 ratio); higher = more trypsin-susceptible (destabilized). To be noted: ligand concentration: 10 uM; sample: E. coli crude lysate.
On to “UniProt P03835 (peptide sequence: SKKPELVEQELWGVLLAYNLVR, peptide start residue: 333)”, for which the log2 fold change was -0.589.
Under “UniProt P07648 (peptide sequence: VKAHLTCLHTR, peptide start residue: 776)” stands 0.95; under “UniProt P08506 (peptide sequence: ALIHDVPEEYAIHK, peptide start residue: 193)”, 0.986; under “UniProt P08390 (peptide sequence: QLAFNMLPLLPDSEGSVREERR, peptide start residue: 194)”, -0.238.
Under “UniProt P00634 (peptide sequence: AAQGDITAPGGARR, peptide start residue: 33)” stands 0.165; under “UniProt P06959 (peptide sequence: SAMEPVWNGK, peptide start residue: 578)”, -0.297.
Take “UniProt P08660 (peptide sequence: NQTLLTLHSLNMLHSR, peptide start residue: 307)”: the log2 fold change was determined as 0.167.
With “UniProt P07003 (peptide sequence: GFSLYMLR, peptide start residue: 545)”, the log2 fold change is -0.292.
On to “UniProt P03817 (peptide sequence: EYDTFCGAIDKLEAELK, peptide start residue: 94)”, for which the log2 fold change was 0.124.
Regarding “UniProt P05706 (peptide sequence: ELGHVTLR, peptide start residue: 80)”, the log2 fold change worked out at 0.0582.
In the case of “UniProt P00550 (peptide sequence: DSLKDSFDDSSANLFK, peptide start residue: 480)”, the log2 fold change is 0.267.
Next, “UniProt P09162 (peptide sequence: QFHIHAQSAVLSDSAVMAMLK, peptide start residue: 105)”: -0.347.
For “UniProt P04846 (peptide sequence: HLQIMELEGAQLPR, peptide start residue: 177)”, the log2 fold change was -0.0584.
“UniProt P06612 (peptide sequence: QLAEKADHIYLATDLDR, peptide start residue: 98)”: the log2 fold change was 1.08.
Take “UniProt P00803 (peptide sequence: QAAAQAAAGDSLDK, peptide start residue: 35)”: the log2 fold change was determined as 0.122.
In the case of “UniProt P02924 (peptide sequence: TTGSMDALK, peptide start residue: 175)”, the log2 fold change was -0.2.
Regarding “UniProt A5A607 (peptide sequence: AYTSIKSDEE, peptide start residue: 55)”, the log2 fold change is -0.184.
Under “UniProt P04816 (peptide sequence: TAGLDSSQGPTAAK, peptide start residue: 140)” stands -0.0696; under “UniProt P05827 (peptide sequence: LHEPLIEAFWK, peptide start residue: 281)”, -0.352.
For “UniProt P07118 (peptide sequence: RTGNMMQPQLADK, peptide start residue: 581)”, the log2 fold change is -0.609.
Under “UniProt P09980 (peptide sequence: RLAYVGITR, peptide start residue: 594)” stands -0.527; under “UniProt P07363 (peptide sequence: GVGMDVVKR, peptide start residue: 472)”, 0.216; under “UniProt P05042 (peptide sequence: ASELLGGVR, peptide start residue: 114)”, -0.202.
Under “UniProt P00909 (peptide sequence: NHDIADVVDKAK, peptide start residue: 314)” stands 0.355; under “UniProt P09155 (peptide sequence: QEVVAPEDAWR, peptide start residue: 191)”, -0.699; under “UniProt P00894 (peptide sequence: IQASGYGRDEVK, peptide start residue: 91)”, 0.424.
Next, “UniProt P00946 (peptide sequence: FEAKPANQLLTQPVK, peptide start residue: 293)”: 0.259.
For “UniProt P04968 (peptide sequence: VGLFAEGVAVKR, peptide start residue: 235)”, the log2 fold change is -0.496.
Under “UniProt P09394 (peptide sequence: DDNLVVLHDHYLDR, peptide start residue: 71)” stands 0.624; under “UniProt P08201 (peptide sequence: IPVTLVEDNA, peptide start residue: 838)”, -0.918.
Under “UniProt P02916 (peptide sequence: NYLSDAFK, peptide start residue: 143)” stands 0.197.
Next, “UniProt P08190 (peptide sequence: TVQVDDSSQSAHFPLQVR, peptide start residue: 126)”: -0.621; “UniProt P00490 (peptide sequence: ENPQADRVPR, peptide start residue: 558)”: -0.312.
Take “UniProt P05041 (peptide sequence: AMEIIDELEPQRR, peptide start residue: 375)”: the log2 fold change was -0.255.
Next, “UniProt P02930 (peptide sequence: LSNPELRK, peptide start residue: 34)”: -0.25.
